“Also recorded” adds a separate entry of the source. Part of at least one peptide drawing is inferred or uncertain, most often the ends. Where a SMILES comes first, the peptide text is derived from it.
Tests used:
purified human IR [1] = biological target: T1, purified human IR (Homo sapiens, UniProt P06213); experiment: Tyrosine kinase activity of purified IR (autophosphorylation); format: biochemical
T1 construct: The product was a tetramer with two heavy chains, each ~130 kDa, and two light chains, each ~90 kDa; from tissue; host or cells: human placenta
Protocol: The purified human IR and the cloned cytoplasmic kinase domain (IRKD) have been described (Ellis et al., (1988) Virology 62:1634-39; Roth et al., (1986) J. Biol. Chem. 261:3753-57). Briefly, the human IR was purified from placenta by immunoaffinity columns, using monoclonal antibodies and binding of IR to wheat germ agglutinin. The product was a tetramer with two heavy chains, each ~130 kDa, and two light chains, each ~90 kDa. […] When peptide was used, it was added in 5.0 μl, the volume adjusted to 20 μl by adding buffer, and the mixture incubated (1 hr, 4° C.). After incubation, 10 μl of a solution containing 2.5 μCi ^32 P-labeled ATP (3,000 Ci/mmol; γ-labeled; Amersham) 50 mM HEPES, pH 7.6, 150 mM NaCl, 0.1% Triton X-100, 37.5 μM unlabeled ATP, 15 mM MgCl2, and 6 mm MnCl2 was added to a final volume of 30 μ l. The mixture was then incubated for 30 min. at 24° C. After incubation, 15 μl sample buffer was added, and the sample was boiled for 5 min., and run on 10% SDS-PAGE overnight. The gel was dried, and autoradiograms processed with an exposure time of 5-10 hr. For quantitative estimates the β-subunit band of IR and the IRKD bands were cut out and counted dry (Cerenkov) in a scintillation counter.

Chains of the proteins cited; added tags and fusions are not shown. Residues count along the entry.
UniProt P06213, 28-758 limits assumed: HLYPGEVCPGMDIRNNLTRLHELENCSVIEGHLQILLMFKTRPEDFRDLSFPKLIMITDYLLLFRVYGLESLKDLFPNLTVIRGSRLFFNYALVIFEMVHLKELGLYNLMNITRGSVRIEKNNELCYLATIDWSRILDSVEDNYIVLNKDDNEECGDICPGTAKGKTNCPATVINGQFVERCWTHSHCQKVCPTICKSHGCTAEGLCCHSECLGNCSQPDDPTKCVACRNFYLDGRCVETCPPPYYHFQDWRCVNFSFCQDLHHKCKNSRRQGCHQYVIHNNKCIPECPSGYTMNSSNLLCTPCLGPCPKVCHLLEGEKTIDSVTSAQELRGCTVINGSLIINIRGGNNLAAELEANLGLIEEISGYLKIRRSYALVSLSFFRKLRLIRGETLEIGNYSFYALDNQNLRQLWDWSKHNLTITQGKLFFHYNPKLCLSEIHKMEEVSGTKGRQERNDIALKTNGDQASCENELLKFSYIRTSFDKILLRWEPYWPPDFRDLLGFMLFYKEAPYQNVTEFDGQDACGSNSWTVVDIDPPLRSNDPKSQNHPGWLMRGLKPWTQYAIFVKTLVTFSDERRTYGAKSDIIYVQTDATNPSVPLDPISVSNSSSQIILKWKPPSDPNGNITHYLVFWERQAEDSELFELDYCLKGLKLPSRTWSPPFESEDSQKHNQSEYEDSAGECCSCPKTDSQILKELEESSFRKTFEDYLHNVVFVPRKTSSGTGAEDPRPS
UniProt P06213, 763-1382 limits assumed: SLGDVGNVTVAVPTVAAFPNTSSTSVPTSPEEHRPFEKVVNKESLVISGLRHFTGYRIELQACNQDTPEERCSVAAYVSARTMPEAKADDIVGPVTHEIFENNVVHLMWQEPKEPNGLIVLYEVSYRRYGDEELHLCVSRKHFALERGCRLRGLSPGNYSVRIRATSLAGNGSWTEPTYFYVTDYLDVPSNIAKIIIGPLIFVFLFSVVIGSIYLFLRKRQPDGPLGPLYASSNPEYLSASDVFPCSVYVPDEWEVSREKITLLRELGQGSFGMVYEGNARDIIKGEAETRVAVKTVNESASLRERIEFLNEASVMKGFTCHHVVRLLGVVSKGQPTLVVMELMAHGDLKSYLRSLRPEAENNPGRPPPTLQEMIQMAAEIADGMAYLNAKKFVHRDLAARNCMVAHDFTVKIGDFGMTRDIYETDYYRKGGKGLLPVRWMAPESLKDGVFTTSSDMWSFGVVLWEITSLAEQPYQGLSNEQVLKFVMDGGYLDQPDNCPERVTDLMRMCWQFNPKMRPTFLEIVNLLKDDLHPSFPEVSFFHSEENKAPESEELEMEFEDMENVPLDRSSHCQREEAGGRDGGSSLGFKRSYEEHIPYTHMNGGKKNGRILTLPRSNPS
UniProt P06213, 980-1382 limits assumed: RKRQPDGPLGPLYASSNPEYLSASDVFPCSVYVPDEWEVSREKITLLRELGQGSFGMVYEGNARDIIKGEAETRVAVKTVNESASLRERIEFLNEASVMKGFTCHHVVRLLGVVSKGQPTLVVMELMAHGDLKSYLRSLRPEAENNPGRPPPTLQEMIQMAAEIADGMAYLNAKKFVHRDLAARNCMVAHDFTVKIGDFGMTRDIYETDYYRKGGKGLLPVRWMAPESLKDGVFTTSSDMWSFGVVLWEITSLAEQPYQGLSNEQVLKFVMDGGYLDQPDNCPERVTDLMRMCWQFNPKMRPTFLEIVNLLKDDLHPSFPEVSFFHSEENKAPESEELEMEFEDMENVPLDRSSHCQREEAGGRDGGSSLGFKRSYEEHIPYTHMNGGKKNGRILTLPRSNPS

purified human IR [2] = biological target: T1, purified human IR; experiment: Substrate phosphorylation of poly-([Glu,Tyr];4:1) by purified IR; format: biochemical; settings: IR tyrosine kinase induced with 10^-6 M insulin; function of peptide concentration
[3] = biological target: T2, insulin receptor kinase domain (IRKD) (Homo sapiens, UniProt P06213); experiment: Phosphorylation of the cloned cytoplasmic kinase domain (IRKD); format: biochemical
T2 construct: made in house; host or cells: insect cells (baculovirus expression vector)

purified human IR [4] = biological target: T1, purified human IR; experiment: Plate assay for insulin binding to purified receptor
rat adipocytes [5] = experiment: Glucose uptake in rat adipocytes (insulin study); format: cell-based; settings: 30 μM peptide; low concentrations of insulin (plasma level and lower)
rats [6] = experiment: Blood glucose levels in whole rats after i.v. injection; format: in vivo, rat
Protocol: The effect of D^k -(61-85) in whole rats was determined. […] All animals were starved 16-20 hrs. prior to experimentation. Each determination was based on results as obtained from 42 rats, where the same rats were used in the four treatment schedules. The schedules were a control, a peptide by itself, insulin by itself, and insulin plus peptide. […] The peptide, at about 20 min., the blood glucose had dropped to about 65% of its original value and then slowly rose back to about the original value at about 90 min. and was maintained about the same level.

rats [7] = experiment: Glucose uptake in various organs (14C-2-deoxyglucose) after i.v. injection; format: in vivo, rat; settings: 14C-2-deoxyglucose injected 60 min after insulin plus peptide, organ 14C measured 30 min later
rat adipocytes [8] = format: cell-based
Protocol: Preparation of Adipocytes--The procedure has been described in detail previously. Briefly, male Wistar rats (100-150 g) were decapitated, and the epididymal fat pads removed and minced with scissors into KRHB (Krebs-Ringer/HEPES/Bovine serum albumin (BSA) buffer: 80 mM NaCl, 4.7 mM KCl, 2.5 mM CaCl2, 1.2 mM MgSO4, 50 mM HEPES, 5% BSA (Sigma, radioimmunoassay grade), pH 7.2) containing 5 mM D-glucose and 1 mg/ml collagenase (type I, Worthington) and digested (1 hr, 37° C.) with gentle shaking (250 cycles per minute). The adipocytes were washed five times in KRHB (each wash in a volume ten times the cell volume). The adipocyte layer was finally diluted with KRHB to a 10% (v/v) suspension as estimated by the volume of packed cells (lipocrit).
Glucose uptake in vitro--The uptake of [^14 C]glucose (D-[U-^14 C]glucose, Amersham, (300 Ci/mol)) by isolated rat adipocytes was measured as follows unless otherwise stated: 50 μl adipocyte cell suspension was pipetted into "Nunc-Immuno tube minisorp" (Nunc, Denmark) and preincubated at 37° C. with gentle shaking (225 cycles per minute) for 30 min. Hormones and peptides were added in 50 μl KRHB and incubated for 30 min at 37° C. Before addition to cells, all solutions were neutralized to pH 7.2. [^14 C]glucose tracer (~100,000 dpm) was added and the incubation continued for another 20 minutes at 37° C. The assay was terminated by centrifugation of 100 μl sample on top of 250 μl silicone oil (Thomas Scientific) in 500 μl tubes in a microfuge (10,000×g) for 1 min. The tube was cut just below the adipocyte layer and the amount of radioactivity in the adipocytes determined by scintillation counting. The precise concentration of [^14 C]glucose was calculated from total counts added.

[9] = peptide 3 μM, IR and IRKD at comparable activities

With `CC[C@H](C)[C@H](NC(=O)[C@H](CCC(N)=O)NC(=O)[C@@H](NC(=O)[C@H](CCC(=O)O)NC(=O)[C@H](CCCNC(=N)N)NC(=O)[C@@H](N)CCC(=O)O)[C@@H](C)O)C(=O)N[C@@H](C)C(=O)N[C@@H](CCCCN)C(=O)NCC(=O)N[C@@H](CC(N)=O)C(=O)N[C@@H](CCC(=O)O)C(=O)N[C@@H](CCC(N)=O)C(=O)N[C@@H](CO)C(=O)N[C@@H](Cc1ccccc1)C(=O)N[C@@H](CCCNC(=N)N)C(=O)N[C@H](C(=O)N[C@@H](CC(=O)O)C(=O)N[C@@H](CC(C)C)C(=O)N[C@@H](CCCNC(=N)N)C(=O)N[C@H](C(=O)N[C@@H](CC(C)C)C(=O)N[C@@H](CC(C)C)C(=O)N[C@@H](CCCNC(=N)N)C(=O)N[C@@H](Cc1ccc(O)cc1)C(=O)N[C@@H](Cc1ccc(O)cc1)C(=O)O)[C@@H](C)O)C(C)C` [D^k-(61-85)] (H-ERETQIAKGNEQSFRVDLRTLLRYY-OH) the “Effect on IR autophosphorylation” value (purified human IR [1]; IR tyrosine kinase induced with 10^-6 M insulin, function of peptide concentration) was “strongly inhibited”, the “Effect on insulin-induced IR autophosphorylation” value (purified human IR [1]; [9]) was “inhibits” and the “Effect on IR autophosphorylation over insulin concentrations” value (purified human IR [1]; peptide at 10 μM) was “inhibits autophosphorylation at all insulin concentrations”. The “Effect on substrate (poly-[E,Y]) phosphorylation” value (purified human IR [2]) was “strongly inhibited”, the “Effect on IRKD phosphorylation” value ([3]; 10 μM peptide, 1 hr on ice with autophosphorylated 32P-labeled IR, then 500 μM cold ATP 0-60 min) was “does not affect” and the “Effect on insulin receptor kinase domain phosphorylation” value [3, 9] was “not the insulin receptor kinase domain phosphorylation”. For the same compound, the “Effect on the binding of insulin to IR based on affinity” value (purified human IR [4]) was “no effect”, the “Increase in glucose uptake compared with insulin” value (rat adipocytes [5]) was “as much or more than insulin on a molar basis” and the “Area between the control curve and the experimental curve, T=0 to T=240” value (rats [6]; insulin plus peptide versus insulin or peptide alone) was “significantly larger”. For the same compound, the “Blood glucose, % of its original value” (rats [6]; peptide 2.5 mg/kg injected together with insulin 10 μg/kg i.v., within about 20 min) was “about 55%”, the “Blood glucose, % of its original value” (rats [6]; peptide 2.5 mg/kg together with insulin 10 μg/kg i.v., at about 195 min) was “about 85%” and the “Blood glucose, % of its original value” (rats [6]; peptide 2.5 mg/kg together with insulin 10 μg/kg i.v., at about 240 min) was “about 90%”. The “Time at which blood glucose rose back to about the original value” (rats [6]; peptide alone 2.5 mg/kg i.v.) was “about 90 min”, the “Blood glucose, % of its original value” (rats [6]; peptide alone 2.5 mg/kg i.v., at about 20 min, starved anesthetized rats) was “about 65%” and the Levels of serum-insulin (rats [6]; peptide i.v.) was “does not result in increased levels of serum-insulin”. For the same compound, the “Main target organs for peptide mediated glucose uptake” value (rats [7]) was “skeletal muscle, liver and kidney; also recorded: particularly pronounced in muscle, liver and kidney”, the “Effect on the EC50 for the EGF effect on glucose uptake” value (rat adipocytes [8]) was “did not affect” and the “Maximal effect of EGF and peptide, % of maximal effect obtained with insulin” value (rat adipocytes [8]) was ~ 50%. For the same compound, the “Time to maximal effect of EGF and peptide” value (rat adipocytes [8]) was 10 to 20 min, the “[14C]glucose uptake, fold above basal” value (rat adipocytes [8]; 50 nM TGFα in combination with 30 μM peptide) was ~ 5 fold and the “Effect on glucose uptake in adipocytes” value (rat adipocytes [8]; PDGF together with peptide) was “no effect”. For the same compound, the “Glucose uptake, fold above basal uptake” value (rat adipocytes [8]; peptide 30 μM added to EGF) was 5-6 fold and the Active concentration range (rat adipocytes [8]; with EGF) was 5 to 30 µM.

From patent US5385888A, “Class I MHC modulation or surface receptor activity” (The Regents of the University of California, priority 1993, dated 1995)
